The source of these data is patent US20250066449A1.

The target in the experiment is transferrin receptor (TfR) (Homo sapiens (Human)) (UniProt P02786). Kind of experiment: cryo-EM, 3D electron density map at about 3.4 Å.

Results are given in words; binding and its absence hold for the method and conditions named. Some results given as binding are weak or reduced against the parent protein; the word gives no strength.

Take GHHERLKSDEWSVTSG [helical region binding moiety #01]: the binding result is on record as “binds”.
